In article PMC4674063, “Uncovering the Molecular Mechanism of Actions between Pharmaceuticals and Proteins on the AD Network” (PLoS ONE, 2015):
Read-outs that look alike come from different tables or passages of the source.

Assays:
[1] = biological target: T1, IDE (Homo sapiens, UniProt P14735); test: Wet-lab test of inhibition of IDE; type: biochemical
T1 sequence (P14735 1-1019): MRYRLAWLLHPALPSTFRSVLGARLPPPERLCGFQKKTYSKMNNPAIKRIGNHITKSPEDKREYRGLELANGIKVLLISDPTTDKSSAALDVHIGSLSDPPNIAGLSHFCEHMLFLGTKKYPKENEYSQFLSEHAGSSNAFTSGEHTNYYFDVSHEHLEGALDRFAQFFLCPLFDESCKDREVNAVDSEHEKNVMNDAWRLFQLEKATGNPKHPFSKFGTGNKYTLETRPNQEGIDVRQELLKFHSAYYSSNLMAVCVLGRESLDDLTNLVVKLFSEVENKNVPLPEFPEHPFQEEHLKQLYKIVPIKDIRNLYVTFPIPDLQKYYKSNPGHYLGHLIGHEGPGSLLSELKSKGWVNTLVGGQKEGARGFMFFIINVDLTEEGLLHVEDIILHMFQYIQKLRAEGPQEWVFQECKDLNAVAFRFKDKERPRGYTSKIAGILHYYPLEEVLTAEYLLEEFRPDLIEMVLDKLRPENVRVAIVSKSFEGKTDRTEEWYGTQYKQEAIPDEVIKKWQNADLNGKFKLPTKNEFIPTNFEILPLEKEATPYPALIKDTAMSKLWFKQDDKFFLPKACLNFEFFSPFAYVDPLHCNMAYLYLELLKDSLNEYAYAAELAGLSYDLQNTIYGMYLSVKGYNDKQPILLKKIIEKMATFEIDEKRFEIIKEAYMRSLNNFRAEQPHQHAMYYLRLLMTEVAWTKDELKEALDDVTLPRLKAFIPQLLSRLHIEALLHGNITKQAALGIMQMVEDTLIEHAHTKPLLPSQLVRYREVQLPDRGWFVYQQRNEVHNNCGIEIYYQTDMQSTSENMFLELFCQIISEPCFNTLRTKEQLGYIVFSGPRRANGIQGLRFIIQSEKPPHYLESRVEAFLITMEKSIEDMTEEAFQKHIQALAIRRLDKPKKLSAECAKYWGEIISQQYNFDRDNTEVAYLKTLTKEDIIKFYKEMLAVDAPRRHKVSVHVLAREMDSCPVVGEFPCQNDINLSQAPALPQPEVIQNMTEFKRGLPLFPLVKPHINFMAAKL

[2] = biological target: T1, IDE; settings: read-out: IC50 Reported value, binding to IDE, ref not given; cited from earlier work

## CC[C@H](C)[C@H](N)C1=N[C@H](C(=O)N[C@@H](CC(C)C)C(=O)N[C@H](CCC(=O)O)C(=O)N[C@H](C(=O)N[C@H]2CCCCNC(=O)[C@H](CC(N)=O)NC(=O)[C@@H](CC(=O)O)NC(=O)[C@H](Cc3cnc[nH]3)NC(=O)[C@@H](Cc3ccccc3)NC(=O)[C@H]([C@@H](C)CC)NC(=O)[C@@H](CCCN)NC2=O)[C@@H](C)CC)CS1 [Bacitracin A]
[1]
  IC50: 79.2 µM
[1]; binding to IDE
  inhibition rate: 77.08%
[2]
  IC50: 100 µM
